Source: patent US20110059093A1
No constants are given. Whether binding was seen depends on the method and setting.

Target: KLH (key hole limpet hemocyanine)
Experiment: condition: 1:5 dilution of the cell culture supernatants; ELISA, single-point measurement

B1: anti-Tau pS422 antibody Mab 005 (antibody, V domains shown)
VH: QSVEESGGRLVTPGTPLTLTCTVSGLSLSSNAINWVRQAPGKGLEWIGYISTSGNTYYASWAKGRFTISKTSTTVDLKITSPTTEDTATYFCGRGDLWGPGTLVTVSS
VL: QVLTQTASPVSAAVGSTVTINCQASQSVYKNNYLAWFQQKPGQPPKRLIYSASTLASGVSSRFKGSGSGTQFTLTISDVQCDDAATYYCLGSCDSSSNNCVAFGGGTEVVVK
With B1 the binding was “no binding”.

B2: anti-Tau pS422 antibody Mab 019 (antibody, V domains shown)
VH: QSVEESGGRLVTPGTPLTLTCTVSGIDLSSYTMNWVRQAPGKGLDWIGFINSGGYTSYASWTRGRFTISKTSTTVDLRITSPTTEDTATYFCARYGGGSGFDLWGPGTLVTVSS
VL: QVLTQTASSVSAAVGGTVTINCQSSQSVYNNRLAWYQQKPGQPPKLLIYKASTLASGVPSRFKGSGSGTQFTLTISDLECDDAATYYCAGGYINIFAFGGGTEVVVK
In the case of B2, the binding is reported as “no binding”.

B3: anti-Tau pS422 antibody Mab 020 (antibody, V domains shown)
VH: QSVEESGGRLVTPGTPLTLTCKVSGFSLSSYDMNWVRQAPGKGLEWVGAISTGGNTYYASWAKGRFTISKTSTTVTLTITSPTTADTATYFCARGSSIWGPGTLVTVSL
VL: QVLTQTASPVSAAVGSTVTINCQASQSVYKNNYLRWYQQKPGQPPKRLIYTASTLASGVSSRFKGSGSGTQFTLTISDVQCDDAATYYCLGGYDCNSADCWAFGGGTEVVVK
With B3 the binding was “no binding”.

B4: anti-Tau pS422 antibody Mab 085 (antibody, V domains shown)
VH: QSVEESGGRLVTPGTPLTLTCTVSGLSLSSNAINWVRQAPGKGLEWIGYIAVSGNTYYASWAKGRFTISKASTTVDLKMTSPTAEDTGTYFCGKSNIWGPGTLVTVSL
VL: QVLTQTASPVSAAVGITVTISCQSSQSVRTNKLAWFQQKPGQPPKRLIYSASTLDSGVPSRFSASGSGTQFTLTISDVQCDDAATYYCLGYYDCSIADCVAFGGGTEVVVK
For B4, the binding was “no binding”.

B5: anti-Tau pS422 antibody Mab 086 (antibody, V domains shown)
VH: QSVEESGGRLVTPGTPLTLTCTVSGFSLSSNAINWVRQAPGKGLEWIGYIAVSGNTYYASWAKGRFTISKASTTVDLKMTSPTAEDTGTYFCGKSNIWGPGTLVTVSL
VL: QVLTQTTSPVSAAVGSTVTISCQSSQSVRTNKLAWFQQKPGQPPKRLIYSASTLDFGVPSRFSASGSGTQFTLTISDVQCDDAATYYCLGYFDCSIADCVAFGGGTEVVVK
With B5 the binding was “no binding”.

B6: anti-Tau pS422 antibody Mab 097 (antibody, V domains shown)
VH: QSVEESGGRLVTPGTPLTLTCTVSGIDLSSYSITWVRQAPGKGLEYIGFIGTGGSTYYASWAKGRFTISRTSTTVDLKITSPTTEDTATYFCARGGDLWGPGTLVTVSS
VL: QVLTQTASSVSAAVGGTVTINCQSSQNVYNNNKLAWFQQKPGQPPKRLIYGASTLASGVSSRFKGSGSGTQFTLTISDLECDDAATYYCLGGYSGNIYTFGGGTEVVVK
With B6 the binding was “no binding”.
